Results from publication PMC11261967, “The retrotransposon-derived capsid genes PNMA1 and PNMA4 maintain reproductive capacity” (Research Square, 2024).
No constants are given. Whether binding was seen depends on the method and setting. Some results given as binding are weak or reduced against the parent protein; the word gives no strength. Where a sequence is shown, tags or fusion partners need not be part of it. One block for each binder: values may come before it.

What was measured:
Assay in all cases: sedimentation through a sucrose cushion; culture medium of transfected HEK293T cells, filtered (0.45 um), concentrated over a 100 kD MWCO filter, layered on a sucrose cushion, 38,000 rpm, 3 hr, 4 C; fractions and pellet immunoblotted (anti-V5)
[1] = biological target: 3V5-tagged human PNMA1 (human) (UniProt Q8ND90)
[2] = biological target: 3V5-tagged human ARC (human) (UniProt Q7LC44)
[3] = biological target: 3V5-tagged human PNMA4 (human) (UniProt Q96BY2)

binding [1]: binds
B1: 3V5-tagged human PNMA1 (protein, UniProt Q8ND90 1-353)
chain: MAMTLLEDWCRGMDVNSQRALLVWGIPVNCDEAEIEETLQAAMPQVSYRMLGRMFWREENAKAALLELTGAVDYAAIPREMPGKGGVWKVLFKPPTSDAEFLERLHLFLAREGWTVQDVARVLGFQNPTPTPGPEMPAEMLNYILDNVIQPLVESIWYKRLTLFSGRDIPGPGEETFDPWLEHTNEVLEEWQVSDVEKRRRLMESLRGPAADVIRILKSNNPAITTAECLKALEQVFGSVESSRDAQIKFLNTYQNPGEKLSAYVIRLEPLLQKVVEKGAIDKDNVNQARLEQVIAGANHSGAIRRQLWLTGAGEGPAPNLFQLLVQIREEEAKEEEEEAEATLLQLGLEGHF

binding [2]: binds
B2: 3V5-tagged human ARC (protein, UniProt Q7LC44 1-396)
chain: MELDHRTSGGLHAYPGPRGGQVAKPNVILQIGKCRAEMLEHVRRTHRHLLAEVSKQVERELKGLHRSVGKLESNLDGYVPTSDSQRWKKSIKACLCRCQETIANLERWVKREMHVWREVFYRLERWADRLESTGGKYPVGSESARHTVSVGVGGPESYCHEADGYDYTVSPYAITPPPAAGELPGQEPAEAQQYQPWVPGEDGQPSPGVDTQIFEDPREFLSHLEEYLRQVGGSEEYWLSQIQNHMNGPAKKWWEFKQGSVKNWVEFKKEFLQYSEGTLSREAIQRELDLPQKQGEPLDQFLWRKRDLYQTLYVDADEEEIIQYVVGTLQPKLKRFLRHPLPKTLEQLIQRGMEVQDDLEQAAEPAGPHLPVEDEAETLTPAPNSESVASDRTQPE

binding [3]: binds
B3: 3V5-tagged human PNMA4 (protein, UniProt Q96BY2 1-351)
chain: MTLRLLEDWCRGMDMNPRKALLIAGISQSCSVAEIEEALQAGLAPLGEYRLLGRMFRRDENRKVALVGLTAETSHALVPKEIPGKGGIWRVIFKPPDPDNTFLSRLNEFLAGEGMTVGELSRALGHENGSLDPEQGMIPEMWAPMLAQALEALQPALQCLKYKKLRVFSGRESPEPGEEEFGRWMFHTTQMIKAWQVPDVEKRRRLLESLRGPALDVIRVLKINNPLITVDECLQALEEVFGVTDNPRELQVKYLTTYQKDEEKLSAYVLRLEPLLQKLVQRGAIERDAVNQARLDQVIAGAVHKTIRRELNLPEDGPAPGFLQLLVLIKDYEAAEEEEALLQAILEGNFT
